Results reported in PMC5021370.
No constants are given. Whether binding was seen depends on the method and setting. Where a sequence is shown, tags or fusion partners need not be part of it.

Molecular target: T1, GST-SPARC (aa 18–303) (UniProt P09486)
T1 sequence: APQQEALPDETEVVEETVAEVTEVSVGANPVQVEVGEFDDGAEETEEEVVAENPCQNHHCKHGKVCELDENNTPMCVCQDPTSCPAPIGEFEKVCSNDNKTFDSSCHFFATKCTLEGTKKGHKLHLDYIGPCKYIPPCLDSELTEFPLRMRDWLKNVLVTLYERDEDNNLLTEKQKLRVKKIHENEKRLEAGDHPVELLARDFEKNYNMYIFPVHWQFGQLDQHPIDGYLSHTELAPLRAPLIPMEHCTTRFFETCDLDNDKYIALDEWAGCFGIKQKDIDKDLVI
Assay: condition: 2 μg human plasma fibronectin with 10 μg of GST fusion protein; pull-down; 2 μg of rTGFBI or 2 μg human plasma fibronectin incubated with 10 μg of GST fusion protein; pull-down with Glutathione sepharose 4B beads, four washes in GST lysis buffer; Western blot; both purified

In the case of human plasma fibronectin, the binding is reported as “no binding”.
